Data taken from PubChem BioAssay AID652054 (National Center for Advancing Translational Sciences (NCATS), 2013).
Hit rate of the full screen: of about 360,000 compounds, about 9,100 (2.5%) were called active. Inconclusive means that the source gave no clear call. Such entries were picked first, then a sample of the others. Rule as the data show it: active = max response below about -50%; inconclusive = no clear call, values can overlap the other calls; inactive = above that.

The chains behind the UniProt entries cited, without tags or fusion partners.
UniProt P35462, whole entry, looked up: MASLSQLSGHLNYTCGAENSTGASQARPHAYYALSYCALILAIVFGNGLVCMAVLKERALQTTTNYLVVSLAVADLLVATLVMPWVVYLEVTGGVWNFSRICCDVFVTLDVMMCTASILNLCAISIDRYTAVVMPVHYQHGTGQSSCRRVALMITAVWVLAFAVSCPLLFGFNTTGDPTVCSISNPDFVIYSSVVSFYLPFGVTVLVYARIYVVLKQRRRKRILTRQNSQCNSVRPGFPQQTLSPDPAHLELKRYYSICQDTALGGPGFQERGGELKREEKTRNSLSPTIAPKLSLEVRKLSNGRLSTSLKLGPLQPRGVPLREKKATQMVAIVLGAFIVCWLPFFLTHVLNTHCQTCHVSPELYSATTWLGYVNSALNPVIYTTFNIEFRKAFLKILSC

What follows are compounds tested against D(3) dopamine receptor (Homo sapiens) (UniProt P35462) (assay: qHTS of D3 Dopamine Receptor Antagonist: qHTS). Conditions: D3R cells, DiscoveRx beta-arrestin luminescence, antagonist mode; active compounds read low.
Summary of the method: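 Cells plated overnight at 1500 cells/well, then exposed to library compounds with dopamine controls for 90 minutes at 37 degrees C. DiscoveRx reagent added for 30–60 minutes at room temperature; luminescence read, quantitative HTS format.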
% is scaled to controls: 0 for no effect and ±100 for the full control effect.

| Structure (SMILES) | max response, negative = inhibition |
| --- | --- |
| O=S(=O)(Nc1ccc(N=Nc2ccc(O)c3ccccc23)cc1)c1ccccc1 | inconclusive: -44.2% |
| COc1ccc(C(CNC(=O)c2cccc(S(=O)(=O)Nc3ccc(C)cc3)c2)N2CCCCC2)cc1 (stereo unspecified) | active: -63.9% |
| CC1(C)CC(=O)C=C(c2ccc(-c3cnc4ccccc4c3)cc2)C1=O | inactive: -2.54% |
| CC(C)(C)C1CCC(N2CCN(c3ccccc3)CC2)CC1 (stereo unspecified) | active: -53.3% |
| CC(=O)Oc1ccc(OC(C)=O)c(SCCCCCCl)c1 | inactive: -6.96% |
| CCCc1cc(=O)oc2c3c(cc(OCC(=O)NCc4ccccn4)c12)OC(C)(C)CC3 | inactive: -5.91% |
| CN1CCN(C(CNC(=O)c2ccc(Br)o2)c2ccc(F)cc2)CC1 (stereo unspecified) | inconclusive: -44% |
| Cc1cc(-n2c(SCC(=O)Nc3ccc(F)c(F)c3)nc3n[nH]c(C)c3c2=N)ccc1Cl | inconclusive: -48.2% |
| CCOC(=O)C(Cc1ccccc1)C(=O)NCc1ccccc1 (stereo unspecified) | inconclusive: -36% |
| Cc1nc2sccn2c(=O)c1S(=O)(=O)NCCc1ccccc1 | inconclusive: -35.5% |
| C=CCn1c(CSCc2ccc(Cl)cc2Cl)nnc1SCC(=O)Nc1ccc(C(=O)O)cc1 | inactive: -14.1% |
| O=C(Nc1ccc(F)cc1F)c1cc2n(n1)C(C(F)(F)F)C1CCCCC1N2 (stereo unspecified) | inconclusive: -42.8% |
| CC(Oc1ccccc1)C(=O)N1CCN=C1SCc1ccccc1 (stereo unspecified) | inconclusive: -31.6% |
| Clc1nssc1=Nc1ccc(Br)cc1 | inactive: 4.76% |
| CCOc1cc(-c2noc(CCC(=O)NCC3CCCO3)n2)ccc1OC (stereo unspecified) | inactive: -7.36% |
| COC(=O)Nc1sc2c(c1C(N)=O)CCCCCC2 | inactive: 20.6% |
| O=C(O)CC/C(=N\Nc1ccc([N+](=O)[O-])cc1S(=O)(=O)N1CCOCC1)c1cccs1 | inconclusive: -47% |
| Cc1ccc(S(=O)(=O)N(C)C[C@@H]2Oc3ncc(Br)cc3C(=O)N([C@H](C)CO)C[C@@H]2C)cc1 | inconclusive: -31.6% |
| CCCCCCOC(=O)C(C#N)c1nc2ccccc2nc1N1CCN(C)CC1 (stereo unspecified) | inconclusive: -47.7% |
| CCOC(=O)C1=C(C)NC(SCC(=O)O)=C(C#N)C1c1ccco1 (stereo unspecified) | inconclusive: -35.6% |
| CCOC(=O)c1nnc2cc(-c3ccccc3)nn2c1C | active: -73.9% |
| Cc1ccc(CC(CC(=O)O)C(=O)NCc2ccccc2)cc1 (stereo unspecified) | inconclusive: -37.8% |

In another format: 2 of the compounds above
Structure (SMILES),"max response, negative = inhibition"
CC(=O)Oc1ccc(OC(C)=O)c(SCCCCCCl)c1,inactive: -6.96%
Cc1ccc(S(=O)(=O)N(C)C[C@@H]2Oc3ncc(Br)cc3C(=O)N([C@H](C)CO)C[C@@H]2C)cc1,inconclusive: -31.6%

(further entries)

| Structure (SMILES) | max response, negative = inhibition |
| --- | --- |
| Cc1ccc2c(c1)C(=O)CC1(CCCCCC1)O2 | active: -115% |
| Cc1ccc(C)c(NC(=S)NC(NC(=O)OCc2ccccc2)C(Cl)(Cl)Cl)c1 (stereo unspecified) | inconclusive: -38.4% |
| CC1=NN(C(N)=S)C(=O)C1N=Nc1ccccc1C (stereo unspecified) | active: -89.3% |
| COc1cc(-c2coc3c(C(=O)NCc4ccccc4)cccc23)ccc1O | inactive: 6.64% |
| CCCOc1ccc(N2C(=O)CC(N3CCN(C(=O)c4ccco4)CC3)C2=O)cc1 (stereo unspecified) | inactive: -24.1% |
| N=c1c[n+](-c2ccc(Cl)cc2)[n-]o1 | inconclusive: -32.8% |
| CCNC(=O)C1(C)CCCN(C(=O)c2cc(OC)ccc2Br)C1 (stereo unspecified) | inconclusive: -43.6% |
| O=C(NCC(c1cccs1)N1CCOCC1)C1CCN(S(=O)(=O)c2cc(Cl)ccc2Cl)CC1 (stereo unspecified) | inactive: 0.886% |
| Cc1oc2c(cc(NS(=O)(=O)c3ccc4c5c(cccc35)C(=O)N4)c3ccccc32)c1C(=O)OC(C)C | inconclusive: -48.6% |
| COc1cc(OC)cc(C(=O)NCC(=O)NCCN2C(=O)S/C(=C\c3ccccc3Cl)C2=O)c1 | inactive: 8.22% |
| O=C(COC(=O)CCC(=O)Nc1nccs1)NCc1ccco1 | inconclusive: -30.2% |
| O=C(CN1CCN(CC(=O)Nc2ccccc2Cl)CC1)Nc1ccc2c(c1)OCCO2 | inactive: 7.15% |
| COc1ccc(C(=O)Oc2cccnc2)cc1OC | inconclusive: -37.7% |
| Cc1csc2ncc(C(=O)NCc3ccccc3Cl)c(=O)n12 | inactive: 0.333% |
| S=c1[nH]nc(CCc2ccccc2)n1Cc1ccccc1 | inconclusive: -40.7% |
| COc1ccc(OC)c(CN2CCCC(C(=O)N3CCCCC3)C2)c1 (stereo unspecified) | active: -77.4% |
| O=C(N/N=C/c1ccc(O)cc1)c1cc[n+](Cc2ccccc2)cc1 | inconclusive: -35.9% |
| CN(C(=O)c1ccccc1)c1ccccc1C(=O)NCCc1ccccc1 | inconclusive: -30.9% |
| Cc1ccc(CN2CCN(Cc3cn[nH]c3C3CCCCC3)CC2CCO)cc1 (stereo unspecified) | inconclusive: -50% |
| CN(CC(=O)Nc1cccc(F)c1)C(=O)c1ccc(N2C(=O)c3ccccc3C2=O)cc1 | inconclusive: -32.5% |
| COc1ccc(NC(=O)c2c([N+](=O)[O-])c(C(C)(C)C)nn2C)cc1 | inactive: -7.33% |
| COc1ccccc1C1CN(c2ccc(F)cc2F)N=C1c1cccs1 (stereo unspecified) | inconclusive: -38% |

A section taken from the entries so far, as a working copy:

| Structure (SMILES) | max response, negative = inhibition |
| --- | --- |
| CN(CC(=O)Nc1cccc(F)c1)C(=O)c1ccc(N2C(=O)c3ccccc3C2=O)cc1 | inconclusive: -32.5% |
| COc1ccc(NC(=O)c2c([N+](=O)[O-])c(C(C)(C)C)nn2C)cc1 | inactive: -7.33% |

Going on with the list.

| Structure (SMILES) | max response, negative = inhibition |
| --- | --- |
| O=C(NCc1ccccc1)C1C(c2ccccc2)=Nc2ccccc2N1C(=O)c1cccnc1 (stereo unspecified) | inconclusive: -31.1% |
| Cn1c(Cn2cnc(Cl)c2Cl)nc2ccccc21 | inconclusive: -30.2% |
| O=C(NCc1ccccc1Cl)c1[nH]c(C(F)(F)F)nc1-c1ccccc1 | inactive: 0% |
| CCc1ccc(/C=C/C(=O)c2cc(Br)ccc(=O)c2O)cc1 | inconclusive: -31.4% |
| O=C(Nc1ccccc1Cl)/C(Cl)=C(\Cl)S(=O)c1ccccc1 (stereo unspecified) | active: -94.9% |
| NC(=O)N/N=C/c1cc(Br)ccc1OC(=O)c1ccccc1 | inconclusive: -41.3% |
| Cc1cc(C)cc(N(C(=O)CCC(=O)Nc2cc(C)on2)C(C(=O)NC2CCCC2)c2ccco2)c1 (stereo unspecified) | inactive: -21.1% |
| Cc1ccc(CNC(=O)CSc2c3c(nc4cc(Cl)ccc24)CCCC3)o1 | active: -76.3% |
| CCc1sc(C(=O)N2CCN(c3ccc(F)cc3)CC2)cc1C | inactive: -3.06% |
| CCOC(=O)C1(CCc2ccccc2)CCN(Cc2cccc3nccnc23)CC1 | inconclusive: -36.3% |
| COc1cccc(CN2CCC(CO)(CC3CCCCO3)CC2)c1 (stereo unspecified) | inactive: -25.4% |
| CCN1C(=O)C(CC(=O)Nc2ccc(OC)cc2)N(CCCN2CCN(c3ccc(OC)cc3)CC2)C1=S (stereo unspecified) | inactive: -29.5% |
| COc1ccccc1/C=N/NC(=O)c1cccc(OC(F)(F)C(F)F)c1 | inconclusive: -34.7% |
| Cc1cccc2c(N=Nc3ccc(S(=O)(=O)Nc4cccc(Cl)c4)cc3[N+](=O)[O-])c(O)[nH]c12 | inconclusive: -37% |
| C[C@H](NC(=O)c1nc[nH]c1C(=O)NCc1ccccc1)C(=O)OC(C)(C)C | inconclusive: -31.6% |
| CC(C)C[C@@H](CN1CCC[C@@H]1CN1C(=S)NC[C@@H]1Cc1ccc(O)cc1)N1C[C@H](Cc2ccc(O)cc2)N(CC2CCCCCC2)C1=S | inactive: -25.2% |
| Cc1cc(-c2nn(-c3ccccc3F)cc2CN2CCC(C(N)=O)CC2)c(C)s1 | inconclusive: -44.9% |
| Cc1ccccc1N1CCN(C2CCCN(C(=O)c3ccsc3)C2)CC1 (stereo unspecified) | inconclusive: -30.9% |
| Cc1cc(NC(=O)Cn2nc([N+](=O)[O-])c(Br)c2C)no1 | inconclusive: -45.7% |
| CCN1C(=O)[C@H]2[C@@H](c3ccc(-c4ccccc4)cc3)N[C@@](C)(C(=O)OC)[C@H]2C1=O | inconclusive: -30.8% |
| Cc1cc(C)nc(SCC(=O)N2CCOCC2)n1 | active: -53.5% |
| O=C(c1ccccc1)N1CCN(Cc2ccccc2)CC1 | inconclusive: -39.5% |

| Structure (SMILES) | max response, negative = inhibition |
| --- | --- |
| OCCNCCCCOc1ccc(OCc2ccccc2)cc1 | inactive: 40.7% |
| CCc1ccc(-c2ccc3nnc(SC)n3n2)cc1 | inactive: -8.5% |
| COc1cccc(-n2c(CN3CCN(c4cccc(C)c4)C(C)C3)nc3ccc([N+](=O)[O-])cc3c2=O)c1 (stereo unspecified) | inconclusive: -40% |
| COc1ccccc1-c1oc2ccccc2c1C#CCCO | inactive: 19.7% |
| C#CCN1C=CC(=O)[C@@H](OC(=O)Nc2ccccc2Br)[C@H]1c1ccccc1Br | inactive: 12.1% |
| O=C(CCl)Nc1cccc(CP(=O)(c2ccccc2)c2ccccc2)c1 | inactive: -12.5% |
| Cc1ccc(CNC(=S)Nc2ccc3c(c2)c(=O)n(C)n3Cc2cccc(C(F)(F)F)c2)cc1 | inconclusive: -31.4% |
| O=C(CSC1=Nc2ccccc2C2CC=NN12)NCc1ccco1 (stereo unspecified) | inconclusive: -32.9% |
| Fc1ccc2cnc(CCO[C@H]3CCCCO3)cc2c1 | inconclusive: -35.9% |
| NC(=S)NN=C1Cc2cccc3cccc1c23 | inconclusive: -36% |
| CNC(=O)C[C@@H]1CC[C@@H]2[C@H](COC[C@H](O)CN2S(=O)(=O)c2ccccc2Cl)O1 | inactive: -2.26% |
| O=[N+]([O-])c1ccc(S(=O)(=O)N/N=C/c2ccsc2)cc1 | inactive: -12.2% |
| CCOc1cccc(CN2CCCC(CNC(=O)c3cccc(OC)c3OC)C2)c1 (stereo unspecified) | inconclusive: -31.3% |
| CC1(C)c2ssc(=S)c2-c2ccccc2N1C(=O)CSC1=NCCS1 | inconclusive: -30.1% |
| CCCCCCCC(=O)Nc1cc(C(=O)NCCC)ccc1N1CCC2(CC1)CC(c1ccccc1)=NO2 | active: -119% |
| CCCNC(=O)C(Cc1ccccc1)NC(=O)c1ccc(C(C)(C)C)cc1 (stereo unspecified) | inconclusive: -35.5% |
| O=[N+]([O-])c1ccccc1/C=N/Nc1nccnc1Cl | inconclusive: -30.8% |
| CC(C)CCN(C)C1CCN(S(=O)(=O)c2cccc(C(F)(F)F)c2)CC1 | inconclusive: -47.3% |
| O=C(c1ccc(N2CCN(C(=O)c3ccccc3Br)CC2)cc1)c1cccc(F)c1 | inactive: 89.3% |
| CCOC(=O)C1CCCN(CC(=O)Nc2c(C(=O)OC)[nH]c3ccc(Br)cc23)C1 (stereo unspecified) | active: -51.4% |
